Measurements as given in PMC11543927, “Subtleties in Clathrin heavy chain binding boxes provide selectivity among adaptor proteins of budding yeast” (Nature Communications, 2024).
Results are given in words; binding and its absence hold for the method and conditions named. For part of these data: Binding seen in cells or lysates may run through a third protein. Some results given as binding are weak or reduced against the parent protein; the word gives no strength. Where a sequence is shown, tags or fusion partners need not be part of it.

Experiments:
[1] = molecular target: Chc-mScarlet Arrestin and W box mutant (Arr+W) (Saccharomyces cerevisiae) (UniProt P22137); assay: FRET or BRET; acceptor photobleaching FRET in living yeast cells at endocytic patches stalled with Latrunculin A, donor mNeonGreen on Ent1/Ent2, acceptor mScarlet on Chc, 21 °C; trimmed mean FRET efficiency
[2] = molecular target: Chc-mScarlet Clathrin and W box mutant (Cla+W) (Saccharomyces cerevisiae) (UniProt P22137); assay: as above
[3] = molecular target: Chc-mScarlet W-box mutant (F26A, Q155A) (Saccharomyces cerevisiae) (UniProt P22137); assay: as above
[4] = molecular target: Chc-mScarlet Clathrin, Arrestin and W box mutant (Cla+Arr+W) (Saccharomyces cerevisiae) (UniProt P22137); assay: as above
[5] = molecular target: Chc-mScarlet Clathrin box mutant (K63E, I87D, Q89A, K98E) (Saccharomyces cerevisiae) (UniProt P22137); assay: as above
[6] = molecular target: T1, Saccharomyces cerevisiae clathrin heavy chain N-terminal domain (ScChc-NTD, 1-369) (Saccharomyces cerevisiae) (UniProt P22137); assay: crystal structure; sitting drop; NTD incubated with excess peptide (between 23 and 40 fold) for 15 min at room temperature (21 °C) before setting up plates; both purified
T1 sequence: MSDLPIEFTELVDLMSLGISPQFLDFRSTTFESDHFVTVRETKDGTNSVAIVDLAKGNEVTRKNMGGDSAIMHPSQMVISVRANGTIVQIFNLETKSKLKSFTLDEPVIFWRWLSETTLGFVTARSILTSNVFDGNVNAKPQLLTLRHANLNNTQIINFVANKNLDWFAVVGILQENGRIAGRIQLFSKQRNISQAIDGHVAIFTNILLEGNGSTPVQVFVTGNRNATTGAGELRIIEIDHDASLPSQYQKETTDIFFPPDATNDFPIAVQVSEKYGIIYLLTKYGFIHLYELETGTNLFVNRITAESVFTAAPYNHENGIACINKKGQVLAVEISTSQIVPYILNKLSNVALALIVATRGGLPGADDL

[7] = molecular target: Chc-mScarlet Arrestin box mutant (Q195A, I197T, K251E) (Saccharomyces cerevisiae) (UniProt P22137); assay: FRET or BRET; acceptor photobleaching FRET in living yeast cells at endocytic patches stalled with Latrunculin A, donor mNeonGreen on Ent1/Ent2, acceptor mScarlet on Chc, 21 °C; trimmed mean FRET efficiency

Measured: binding

B1: Ent2 endogenously tagged with mNeonGreen (Ent2-mNeonGreen) (natural protein, UniProt Q05785 1-613, looked up)
chain: MSKQFVRSAKNMMKGYSSTQVLVRDATANDSRTPSIDTLDDLAQRSYDSVDFFEIMDMLDKRLNDKGKYWRHVAKSLTVLDYLVRFGSENCVLWCRENFYVIKTLREFRHENESGFDEGQIIRVKAKELVSLLNDEERLREERSMNTRNRRANRAARPRPRRQRTRSNPHDSSPSYQDDLEKALEESRITAQEDEQRRRELAQYDDEDPDFQAALQLSKEEEELKQLQELQRLQKQQQSLSQFQAPLQQQQPQQQPAYYDIFGNPISQDEYLQYQYQQDQEQAMAQQRWLDQQQEQQQLAEQQYFQQQQQAAAAASALQQQQTAANMQQQQQQPADFQQPLPTGSNNPFSMDNLERQKQEQQHAQLQRQQEEARQQQEQLKLQQLQRQQQEEAQLHQKRQEEAQLQQQQAQLLQQQAQFQQQQPLKQTRTGNQSISDKYSDLNTLLATGTGIDTFGNTGEARIPAQHTKTGTFINSQGTGYKQVTNEPKNNPFLSNQYTGLPSTNIVPTQTGYGFGNQPQSPPTNSPQQNPTGISYSQPQQQQQPQQQPQYMQNFQQQQPQYAQNFQQQPQYTQNYQQQPQYIQPHQQQQQQQQQQQQQQGYTPDQGVSLIDL
notes: epsin Ent2, Saccharomyces cerevisiae, endogenous locus tagged with mNeonGreen; also called Ent2-WT-mNeonGreen; Ent2p; source: endogenously tagged, S. cerevisiae MK100, in living cells
not listed: [6] | [7]
binds: all other assays above

B2: Apl2.1 CBM peptide (SQDLLDLF) (peptide)
peptide: SQDLLDLF
notes: also called LLDLF peptide; source: synthetic peptide, bought: NovoProLabs
binds: [6]

B3: Ent1 endogenously tagged with mNeonGreen (Ent1-mNeonGreen) (natural protein, UniProt Q12518 1-454, looked up)
chain: MSKQFVRSAKNLVKGYSSTQVLVRNATSNDNHQVSKDSLIELAEKSYDSADFFEIMDMLDKRLNDKGKYWRHIAKALTVIDYLIRFGSENCVLWCRENLYIIKTLKEFRHEDDEGIDQGQIVRVKAKELTALLSDDERLNEERNMNIKGRNRKGRRRRGTGRSDENDDDLQRAISASRLTAEEDERRRKQDEDYETALQLSKEEEELKRLQDLQRMQQQQGQQQLQQPMYYDIFGNPITPEEYAQFQLQQQQQQQQQQLQQQPMYYDVFGNPITPEELAQFQQQQQLQEQQYLASMQQQQQAMSNNPFAKSEQSSSSPKRNQLVAASSPQQLQQQKQQEPLIQNRTGNQSMTDKYSKLNELLATGTGIDTFGNVGEARIPAQHTKTGTFINSQGTGYRQVSDDPNHNPFLNSQYTGLPSTSVVPTQTGYGFGNQSQQQSQNNGSNNRGYTLIDL
notes: epsin Ent1, Saccharomyces cerevisiae, endogenous locus tagged with mNeonGreen; also called Ent1p; source: endogenously tagged, S. cerevisiae MK100, in living cells
binds: [1] | [7] | [3]
